Data on 1 sequence can be found in paper PMC5873253.

Chains of the proteins cited; added tags and fusions are not shown. Lines headed by an entry give the natural chain unless they say otherwise; changes in a name come on top.
UniProt Q6Z6W2: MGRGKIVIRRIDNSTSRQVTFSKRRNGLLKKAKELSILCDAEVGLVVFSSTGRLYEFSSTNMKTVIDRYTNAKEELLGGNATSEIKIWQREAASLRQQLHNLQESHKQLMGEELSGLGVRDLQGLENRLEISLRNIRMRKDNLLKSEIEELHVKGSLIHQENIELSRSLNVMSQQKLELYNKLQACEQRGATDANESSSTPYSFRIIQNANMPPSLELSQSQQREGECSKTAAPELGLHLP

The exact form of at least one protein or probe is not confirmed. A negative result means that nothing was seen under these conditions.

In this series the target is OsMADS57 (Oryza sativa) (UniProt Q6Z6W2). As to the kind of experiment: EMSA. The following applies: text mentions mutant probe with labeled WRKY94S2, described as negative control without shifted band; EMSA: LightShift Chemiluminescent kit (Pierce), buffer not stated; recombinant protein; protein details: N-terminal GST. (In general: A gel shift assay detects complexes by their altered migration in electrophoresis.)

As to “TTAAAGGGCCCCCTTTAGTTAAAGGGCCCCCTTTAGTTAAAGGGCCCCCTTTAG (double strand) [WRKY94S2 mutant (57mP)]”, the binding result is recorded as “no binding”.
